Literature values as cited in patent US6410029B1, “2-methoxyestradiol-induced apoptosis in cancer cells” (Board of Regents, The University of Texas System, priority 1996, dated 2002).
At least one compound was matched to its structure with a doubt left.

Tested on: mutated p53
Settings: cited from earlier work

In the case of `COC1=C2C[C@@H](C)C[C@H](OC)[C@H](O)[C@@H](C)/C=C(\C)[C@H](OC(N)=O)[C@@H](OC)/C=C\C=C(/C)C(=O)NC(=CC1=O)C2=O` [Geldanamycin], the “conformation of mutated p53” value is listed as “selectively alter the conformation of mutated p53”.
